# Experimental data taken from PubChem BioAssay AID504834 (National Center for Advancing Translational Sciences (NCATS), 2011).
# Hit rate of the full screen: of about 320,000 compounds, about 22,000 (6.9%) were called active. Inconclusive results, whose numbers are uncertain, are shown with a selection of clear calls. Calls come from the whole dose curve; as a rule, active = well fitted inhibition curve with a large enough effect; inconclusive = small, poorly fitted or top-dose-only effect, or another doubt; inactive = no such curve, though single readings can be large or run the other way. A potency beside an inconclusive call is a rough fit, not a confirmed value.
# Test: Primary qHTS for delayed death inhibitors of the malarial parasite plastid, 96 hour incubation
# Details: P. falciparum luciferase reporter growth; series mostly up to 28.7 µM; activity change, negative = inhibition: at the top concentration
# Outline: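 Plates of compound plus infected erythrocytes (2% hematocrit, 0.05% parasitemia final) incubate 96 hours, 37 C, 5% CO2. Detection reagent added; reduced luminescence from the parasites' luciferase reporter flags inhibition.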
# % is set by controls: 0 for no effect and ±100 for the full control effect; potency is the fitted concentration of half-maximal effect.
Structure (SMILES),Potency,"activity change, negative = inhibition"
COC(=O)CC1C(=O)NCCN1C(=O)c1ccc2oc(C(C)C)nc2c1 (stereo unspecified),active: 14.7 µM,–
O=C(COc1ccccc1)Nn1cnc2ccccc21,"inconclusive: 1.04 µM [inhibitor, partial curve, poor fit]",–
O=C(COC(=O)C1=Cc2ccccc2OC1)NCc1ccccc1,"inconclusive: 1.85 µM [inhibitor, full curve]",–
CCCCNC(=O)c1sc2nc(C)cc(COC)c2c1-n1cccc1,"inconclusive: 0.165 µM [inhibitor, full curve, poor fit]",–
C/C(=N\OCc1ccc(C#N)cc1)c1cc2ccccc2o1,–,inactive: 7.05%
CC(C)CCOP(=O)(c1ccccc1)c1ccccc1,"inconclusive: 0.415 µM [inhibitor, full curve, poor fit]",–
C=C1N(c2cccc(Cl)c2)C(=O)OC1(C)C,"inconclusive: 18.5 µM [inhibitor, single point]",–
COCc1c(C(=O)N/N=C(/C)c2cccs2)nnn1-c1nonc1N,"inconclusive: 6.57 µM [inhibitor, partial curve, poor fit]",–
Cc1nnsc1-c1onc(C)c1C(=O)Nc1cc(Cl)cc(Cl)c1,"inconclusive: 1.17 µM [inhibitor, full curve]",–
CCOc1ccc(CN2CCN(CCCc3ccccc3)CC2CCO)cc1 (stereo unspecified),–,inactive: 2.7%
CC(=O)Nc1ccc(NC(=O)COc2ccc(S(=O)(=O)N3CCCC3)cc2)cc1,"inconclusive: 9.28 µM [inhibitor, single point]",–
C/C(Cn1cnc([N+](=O)[O-])n1)=N\NC(=O)c1ccc(O)cc1O,"inconclusive: 10.4 µM [inhibitor, single point]",–
CC1Sc2ccc(S(=O)(=O)CCC(=O)NCc3ccc(Cl)cc3)cc2NC1=O (stereo unspecified),"inconclusive: 0.185 µM [inhibitor, full curve]",–
Cn1cc[nH]c1=S,"inconclusive: 6.42 µM [inhibitor, partial curve]",–
O=C(N/N=C/c1cc(Cl)cc([N+](=O)[O-])c1O)c1cccc(S(=O)(=O)N2CCOCC2)c1,"inconclusive: 18.5 µM [inhibitor, single point]",–
COC(=O)c1ccc(OC(=O)CCN2C(=O)C3C4c5ccccc5C(c5ccccc54)C3C2=O)cc1 (stereo unspecified),"inconclusive: 18.5 µM [inhibitor, single point]",–
CCC(=O)OC1CC(C)N(C(=O)c2ccccc2)c2ccc(C)cc21 (stereo unspecified),"inconclusive: 7.38 µM [inhibitor, partial curve, poor fit]",–
CCOC(=O)c1sc(-c2ccc(OC)cc2)cc1NC(C)=O,–,inactive: 98%
Cc1cc(C)n(C(=O)c2ccc([N+](=O)[O-])cc2N)n1,"inconclusive: 9.28 µM [inhibitor, single point]",–
C=CCn1c(=N)n(CC(=O)c2ccc(Br)s2)c2ccccc21,active: 13.1 µM,–
CCc1ccc(Nc2nnc(SCC(=O)Nc3ccc(C(=O)O)cc3)s2)cc1,–,inactive: 196%
O=C(CCl)N1CCN2C(=O)c3ccccc3C12c1ccc(Cl)cc1 (stereo unspecified),"inconclusive: 18.5 µM [inhibitor, single point]",–
CCCc1nc2c(sc3nc4c(cc32)COC(C)(C)C4)c(=O)n1CCN(CC)CC,–,inactive: 12%

Structure (SMILES),Potency,"activity change, negative = inhibition"
CC(C)N(C(=O)COC(=O)c1cncc(Br)c1)C(C)C,–,inactive: 25.6%
CC(C)n1cc(/C=N/Nc2ccc(C(=O)O)cc2)c2ccccc21,–,inactive: 260%
COc1ccc(-c2nc3ccccn3c2NC2CCCCC2)cc1SC1CCCCC1,"inconclusive: 11.7 µM [inhibitor, single point]",–
FC(F)Sc1ccc(NC(=S)NCC2CCCCC2)cc1,–,inactive: -105%
CC1(C)CC(NC(=O)c2cccc(S(=O)(=O)N(Cc3ccccc3)c3ccccc3)c2)CC(C)(C)N1,active: 13.1 µM,–
CCCCNS(=O)(=O)c1ccc2nc(SCC(=O)Nc3cc(C)cc(C)c3)[nH]c2c1,"inconclusive: 14.7 µM [inhibitor, single point]",–
C[C@@]12C(=O)N(CCO)CC(=O)N1[C@H](/C=C/c1ccccc1)[C@@H]1C(=O)N(c3ccccc3)C(=O)[C@@H]12,–,inactive: 38.7%
CCOc1ccc2c(c1)OC(c1ccccc1)(C(F)(F)F)NC2=O (stereo unspecified),active: 0.233 µM,–
CCn1c(CNC(=O)c2cccnc2)cc2ccccc21,–,inactive: 0.979%
CCOc1ccc(CNCCNC(=O)c2nonc2N)cc1,–,inactive: 6.21%
COc1ccc(Cl)cc1N(C(C)C(=O)NC1CCCC1)S(C)(=O)=O (stereo unspecified),–,inactive: 10.1%
CCOC(=O)c1c(C=O)c(C)n(Cc2ccc(C)cc2)c1C,"inconclusive: 8.28 µM [inhibitor, partial curve, poor fit]",–
CN1/C(=C\C=N\NC(=O)c2ccccc2Br)C(C)(C)c2ccccc21,"inconclusive: 10.4 µM [inhibitor, partial curve]",–
O=C(NC1CCCN(Cc2ccc(Cl)cc2)C1)c1ccoc1 (stereo unspecified),"inconclusive: 20.8 µM [inhibitor, partial curve, poor fit]",–
C=CCOc1ccc2c(CC)cc(=O)oc2c1C,"inconclusive: 2.33 µM [inhibitor, partial curve, poor fit]",–
CN(Cc1ccccc1Cl)C(=O)C1CC(=O)N(c2ccc3c(c2)OCCO3)C1 (stereo unspecified),–,inactive: 3.63%
COc1ccc(C(=O)N/C=C/n2cnc3cc(C(F)(F)F)ccc32)cc1,–,inactive: -8.31%
O=C(NCCN1CCCC1)c1ccc(CS(=O)(=O)c2c(Cl)cccc2Cl)o1,"inconclusive: 14.7 µM [inhibitor, single point]",–
CCn1c(=O)c(C(=O)CN2CCN(S(=O)(=O)c3ccccc3)CC2)c(N)n(Cc2ccccc2)c1=O,"inconclusive: 0.738 µM [inhibitor, full curve]",–
CCOC(=O)c1cnc2nc(C)nn2c1N,–,inactive: 34.9%
O=C(CCc1nnc2ccc(NCc3ccccc3Cl)nn12)NC1CCCC1,"inconclusive: 16.5 µM [inhibitor, single point]",–
Cn1c(=O)[nH]c(=O)c2c1nc(SCC(O)CCl)n2Cc1ccccc1 (stereo unspecified),"inconclusive: 0.329 µM [inhibitor, partial curve, poor fit]",–
COc1ccc(NC(C)=O)cc1NC(=O)CN1CCN(CC(=O)Nc2ccccc2Cl)CC1,"inconclusive: 11.7 µM [inhibitor, single point]",–

# Random excerpt: three records from the list.
Structure (SMILES),Potency,"activity change, negative = inhibition"
C=CCn1c(=N)n(CC(=O)c2ccc(Br)s2)c2ccccc21,active: 13.1 µM,–
CCC(=O)OC1CC(C)N(C(=O)c2ccccc2)c2ccc(C)cc21 (stereo unspecified),"inconclusive: 7.38 µM [inhibitor, partial curve, poor fit]",–
CC(C)CCOP(=O)(c1ccccc1)c1ccccc1,"inconclusive: 0.415 µM [inhibitor, full curve, poor fit]",–
